Experimental findings from the supplement of paper PMC7024190 are described below.

“And” between values parts separate entries of the source, which are not always exact repeats. Equal entries are not always repeated. This is one part of the list. This data set is noisy: repeats of one test often differ as much as different tests do.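 The cells were human embryonic kidney cells carrying a Renilla luciferase gene, driven by the HSV-TK promoter, on a plasmid put in briefly by transfection. This is the first-round screen of about ten thousand compounds, looking for ones that raise reporter output.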

This assay relates to HEK 293FT. The assay is described as follows: log relative Renilla luciferase luminescence (reporter expression vs reference, reference not stated) (log (base not stated)); higher = higher recombinant reporter expression. The settings on record: 10 µM; time after transfection 48 h.
For `CCCCC[C@H](O)/C=C/[C@H]1[C@H](O)CC(=O)[C@@H]1C/C=C\CCCC(=O)O` [Prostaglandin E2], the log was -0.0566.
With `C[S+]([O-])c1ccc(-c2nc(-c3ccc(F)cc3)c(-c3ccncc3)[nH]2)cc1` (stereo not given), the log was -0.0983 and -0.076.
For `Nc1nc2c(cnn2CCc2ccccc2)c2nc(-c3ccco3)nn12` the value was -0.0171; for `CCC(=O)NC[C@H](Cc1ccc(OCCc2nc(-c3ccccc3)oc2C)cc1)N/C(C)=C\C(=O)c1ccc(C(F)(F)F)cc1`, -0.132; for `O=C(O)c1c(Sc2ccccc2)c2cc(Cl)ccc2n1Cc1ccc(Cl)cc1`, 0.034.
For `CC(C)(C=O)Cc1cc(C(C)(C)C)c(O)c(C(C)(C)C)c1` the value was -0.0293; for `Cc1noc(NS(=O)(=O)c2cccc3c(N(C)C)cccc23)c1C`, 0.0598.
In the case of `Oc1c2ccccc2c2c3c(cccc13)N=N2`, the log was -0.0437.
For `CCN(CC)CCCC(C)Nc1nc(C)cc(Nc2ccc3nc(C)cc(N)c3c2)n1` (stereo not given), the log is -0.0288.
As for `CCCCCCNC(=O)Nc1ccc(S(=O)(=O)Nc2ccc(CCNC[C@H](O)COc3ccc(O)cc3)cc2)cc1`, the log was found to be 0.033.
For the compound `CCCCc1nn(-c2ccccc2C(F)(F)F)c(=O)n1Cc1ccc(-c2ccccc2S(=O)(=O)NC(=O)c2sccc2C)cc1`, the log is -0.19.
Then `CC1=NN(c2ccccc2)C(=O)C1`, with 0.06.
Then `COC(=O)C1=C(C)NC(C)=C(C(=O)OC(C)C)C1c1cccc2nonc12` (stereo not given) [Isradipine], with -0.00324; and `CC(CCCCC(=O)Nc1ccc(C(F)(F)F)cc1)NCCc1cnc[nH]1` (stereo not given) [HTMT dimaleate], with -0.0536; and `Cc1nc2c(c(=O)[nH]1)CSCC2`, with -0.0661.
